Source: the supplement of paper PMC5407854, “Inhibitor of ppGalNAc-T3-mediated O-glycosylation blocks cancer cell invasiveness and lowers FGF23 levels” (eLife, 2017)
Some of the results follow. Small differences around the control level are noise.

Tested on: ppGalNAc-T3 sensor
Assay: T3 sensor activation Q score (MG/GFP ratio z-score vs DMSO controls) (SD units); higher = more sensor activation (inhibition of ppGalNAc-T3 glycosylation)
Settings: HEK293 sensor cells; 10 µM; 6 h
Method: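 Cells were treated with compound at 10 uM for 6 h, then MG/GFP ratio was read by flow cytometry (10,000 cells per well, duplicate wells). Q = (R - R_neg)/SD_neg relative to DMSO vehicle controls; the signal rises when the glycosyltransferase is inhibited.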

Compound | T3 sensor activation Q score
CSc1nnc(-c2ccccc2Cl)o1 | 0.015
CN(C)Cc1ccccc1C(O)(c1ccccc1)c1ccccc1 | -0.255
O=C1CC(N2CCN(c3ccccn3)CC2)C(=O)N1c1ccc(Cl)cc1 (stereo not given) | 0.205
CCOC(=O)Nc1nnc(-c2ccc(C)cc2)s1 | 0.005
Cc1cccc(N2CCN(Cc3ccoc3)CC2)c1C | 0.265
Cc1ccc2[nH]c3c(c2c1)CCCC3NCc1ccc(Cl)cc1 (stereo not given) | -0.01
CN1CCN(C2CC(=O)N(c3cc(Cl)cc(Cl)c3)C2=O)CC1 (stereo not given) | 0.355
Cc1ccc(C)c(CN2CCC(O)CC2)c1 | 0.19
CCOC(=O)N1CCN(Cc2ccc(Cl)cc2)CC1 | 0.215
CCN(CC)C(=O)C1CCCN(Cc2ccccc2C)C1 (stereo not given) | -0.19
Cc1ccc(NS(=O)(=O)c2ccc(Cl)cc2)c(C)c1 | 0.24
CCOc1ccc(NC(=O)Nc2ccccc2)cc1 | -0.065
COc1ccc(NC(=O)c2sc3nc(C)cc(C)c3c2N)cc1 | 0.145
O=c1c(Cl)c(Cl)cnn1Cc1ccccc1 | -0.28
COc1ccc(S(=O)(=O)N2CCCCC2)cc1 | 1.26
CCOC(=O)N1CCN(Cc2ccc(F)cc2)CC1 | 0.545
CCc1nc(C)cc([N+](=O)[O-])c1O | 0.95
O=C(CC1CCCCC1)Nc1ccccc1 | -0.26
O=C(Nc1ccc(Cl)cc1)c1ccc2nc3ccccc3nc2c1 | 0.115
O=[N+]([O-])c1ccc(/C=C/c2ccc(O)cc2)cc1 | 1.08

Compound | T3 sensor activation Q score
Cc1ccc(O)c(CCc2ccc(O)cc2)n1 | 0.11
O=S(=O)(Cc1ccccc1)c1nc2ccccc2[nH]1 | 1.41
NC(=O)CN1CC(=O)NC(=O)C1 | -0.24
COc1cc(CN2CCN(C/C=C/c3ccccc3)CC2)cc(OC)c1OC | -0.465
CC(C)CC(=O)N1CCN(Cc2ccccc2Cl)CC1 | -0.245
C=CCSc1nc(O)c(CC)c(=O)n1-c1ccccc1 | -0.3
CN(CCC(N)=O)Cc1ccccc1 | -0.24
COc1ccc(C)cc1NC(=O)C(c1ccccc1)c1ccccc1 | -0.42
C=CCc1ccccc1OCC(N)=O | 0.175
O=C(Nc1ccc(Br)cc1)[C@@H]1C2C=CC(C2)[C@@H]1C(=O)O (stereo not given in full) | -0.495
O=C(O)c1ccccc1C(=O)c1ccc(Cl)c(Cl)c1 | -0.48
Cc1ccc(S(=O)(=O)Nc2c(C)cc(O)c(Cl)c2C)cc1 | -1.32
Cc1cccc(CN2CCN(c3ccccn3)CC2)c1 | -0.245
CC(=O)Nc1c(Cl)c(Cl)c(NC(C)=O)c2n[nH]nc12 | -1.17
Cc1c(NC(=O)c2ccc(Cl)cc2)c(=O)n(-c2ccccc2)n1C | -0.385
O=C(NCCCCc1ccccc1)c1ccc(Cl)cc1Cl | 0.395
CC(=O)C1=C(O)C(=O)N(CCO)C1c1cccc(F)c1 (stereo not given) | 0.12
Cc1ccc(CN2CCN(C(=O)c3ccccc3F)CC2)cc1 | -0.835
O=C(CCc1ccccc1)Nc1ccc(F)cc1F | 0.455
CC(=O)c1cccc(Nc2nc(-c3ccc(Cl)cc3)cs2)c1 | -0.685

Arranged by heavy-atom count (ascending): part of the list above.
Compound | T3 sensor activation Q score
CCOC(=O)N1CCN(Cc2ccc(F)cc2)CC1 | 0.545
Cc1cccc(CN2CCN(c3ccccn3)CC2)c1 | -0.245
O=C1CC(N2CCN(c3ccccn3)CC2)C(=O)N1c1ccc(Cl)cc1 (stereo not given) | 0.205
